Reference: PubChem BioAssay AID445 (National Center for Advancing Translational Sciences (NCATS), 2006)
The list shows a part of the results. Further columns of the screen follow, without active or inactive calls. Most of these compounds were active or inconclusive in the main read-out, so they are no random draw. The note in brackets gives the kind of curve behind each potency; many fits are weak.

Assay: IkB Signaling
Conditions: ABC-DLBCL IkBa-CBG/CBR dual luciferase ratio (green luciferase fused to IkBa over red control in OCI-Ly3 lymphoma cells), 4 h
Outline: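 Luminescence ratio of IκBα-fused green versus native red beetle luciferase in OCI-Ly3 cells, 4 h post-doxycycline with compound; red signal alone, scaled from basal (0%) to zero light (-100%), flagged nonspecific or cytotoxic effects.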

[1] = measured here: control luc red channel unless noted

CC1CCN(c2ccc(-c3nc(-c4ccccc4)no3)cc2[N+](=O)[O-])CC1
AC50 [1]: 12.6 µM [falling, partial curve]

Cc1ccccc1Cn1cnc2nc3c(cc2c1=O)CC(C)CC3 (stereo unspecified)
AC50 [1]: 0.501 µM [rising, partial curve]

Cc1cc(N2CCCCC2)nc2ccc(NC(=O)/C=C/c3ccc(OCCC(C)C)cc3)cc12
AC50 [1]: 0.0158 µM [rising, full curve]

O=C1OCC2=C1C(c1ccc3c(c1)OCO3)Sc1ccccc1N2 (stereo unspecified)
AC50 [1]: 20 µM [falling, partial curve]

CCOC(=O)C1CCCN(C(=O)c2ccc3c(c2)N(Cc2ccc(Cl)cc2)C(=O)c2ccccc2S3=O)C1 (stereo unspecified)
AC50 [1]: 25.1 µM [falling, partial curve]

COc1cccc(NC(=O)Nc2ccc3nc(N4CCN(C)CC4)cc(C)c3c2)c1
AC50 [1]: 31.6 µM [falling, single point]

CCCCNC(=O)CCn1c(=O)c2ccccc2n(Cc2cccc(Cl)c2)c1=O
AC50 [1]: 39.8 µM [rising, partial curve]

Cc1nc(N2CCCC2)c2c(C(=O)Nc3ccc(Br)cc3F)c(C)oc2n1
AC50 [1]: 39.8 µM [falling, single point]

NCCCCNS(=O)(=O)c1ccc2c(Cl)cccc2c1
AC50 [1]: 31.6 µM [falling, partial curve, poor fit]

Cc1ccc(Cn2nnc3c(=O)[nH]c(C4CCN(S(=O)(=O)c5ccccc5)CC4)nc32)cc1
AC50 (measured here: IkB-luc green channel): 31.6 µM [falling, partial curve, poor fit] | AC50 (measured here: control luc red channel): 20 µM [falling, partial curve]

Cc1ccccc1C(=O)Nc1nc(-c2ccc(Br)cc2)ns1
AC50 [1]: 2.51 µM [falling, full curve]

O=C(CSc1nnnn1-c1ccccc1)Nc1nsc(-c2ccccc2)n1
AC50 [1]: 6.31 µM [falling, partial curve]

CC(C)Oc1ccc(CNC(=O)C2CCN(C(=O)N3CC(C)Oc4ccccc43)CC2)cc1 (stereo unspecified)
AC50 [1]: 0.631 µM [falling, full curve]

CC(C)n1c(SCc2ccccc2F)nc2c1c(=O)n(C)c(=O)n2C
AC50 [1]: 20 µM [falling, partial curve]

CCN1CC=C2C(C1)C(c1ccc(Cl)s1)C(C#N)=C(N)C2(C#N)C#N (stereo unspecified)
AC50 [1]: 3.98 µM [rising, partial curve] [measured here: IkB-luc green channel]

CCOc1ccc2nc(N3CCC(C(=O)Nc4cc(C)ccc4C)CC3)sc2c1
AC50 [1]: 10 µM [falling, partial curve]

Cc1cc(C)n(-c2ccc(C(=O)Nc3ccc4c(c3)OCCO4)cc2)n1
AC50 [1]: 15.8 µM [falling, partial curve]

O=C(NC1CCCCC1)c1ccc(CSc2nc3ccncc3n2Cc2ccccc2F)cc1
AC50 [1]: 31.6 µM [falling, partial curve]

O=C(CSCc1cnn(-c2ccccc2)c1-n1cccc1)NCc1ccc(F)cc1
AC50 [1]: 6.31 µM [rising, single point]

Oc1c(C(c2ccccc2Cl)N2CCN(Cc3ccccc3)CC2)sc2nc(-c3ccco3)nn12 (stereo unspecified)
AC50 [1]: 6.31 µM [rising, single point]

Cc1sc2nc(SCC(=O)NCc3cccs3)[nH]c(=O)c2c1C
AC50 [1]: 12.6 µM [falling, partial curve]

Cc1ccccc1CNC(=O)c1ccc2c(c1)c(C)c(C)n2C
AC50 [1]: 25.1 µM [falling, single point]

CN(C)c1ccc(CNC(=O)c2ccc(Cn3c(SCc4ccccc4)nc4cccnc43)cc2)cc1
AC50 [1]: 7.94 µM [falling, partial curve]

Cc1ccc(Cl)cc1NC(=O)C1CCN(c2nnc(C)c3c(C)n(-c4ccccc4)nc23)CC1
AC50 [1]: 31.6 µM [falling, single point]

Cc1ccccc1Cn1nnc2c(=O)[nH]c(C3CCN(C(=O)c4ccc(F)cc4)CC3)nc21
AC50 [1]: 2.51 µM [rising, partial curve]

COCC(=O)Nc1cccc2ccccc12
AC50 [1]: 1 µM [falling, full curve]

FC(F)Oc1ccccc1C1CC(c2ccc(Br)s2)Nc2ncnn21 (stereo unspecified)
AC50 [1]: 15.8 µM [falling, partial curve]

Cc1ccccc1N1CCN(S(=O)(=O)c2nnc(NC(=O)c3ccc(C(C)C)cc3)s2)CC1
AC50 [1]: 12.6 µM [falling, single point]

COc1cc(NC(=O)c2cc(C3CC3)nc3c2c(C)nn3-c2ccccc2)cc(OC)c1
AC50 [1]: 20 µM [falling, partial curve]

CCCCCn1c(NCc2ccc(OC)cc2)nc2ccccc21
AC50 [1]: 12.6 µM [falling, partial curve]

COc1ccccc1OC(C)C(=O)Nc1cccc(-c2nc3ccccc3s2)c1 (stereo unspecified)
AC50 [1]: 3.16 µM [falling, partial curve]

c1ccc(COc2ccc(OCCCn3cncn3)cc2)cc1
AC50 [1]: 31.6 µM [falling, single point]

NC(=O)c1ccccc1N/C=C/C(=O)c1ccco1
AC50 [1]: 3.98 µM [falling, full curve]

Cc1cc(C)cc(NC(=O)Cn2c(-c3cncs3)nc3ccccc32)c1
AC50 [1]: 12.6 µM [falling, single point]

CCOC(=O)N1CCC(NC(=O)c2cc3c(C)nc4ccccc4c3o2)CC1
AC50 [1]: 7.94 µM [falling, partial curve]

CC(=O)Nc1nonc1-c1nnc(SCC(=O)Nc2ccc(C)cc2)n1-c1ccccc1
AC50 [1]: 12.6 µM [falling, partial curve]

COc1ccc(-c2cc(-c3ccccc3)c(C#N)c(SCC(O)CS(=O)(=O)Cc3ccc(Cl)cc3)n2)cc1 (stereo unspecified)
AC50 [1]: 6.31 µM [falling, partial curve, poor fit]

CCCN1CCN(c2ncnc3sc(C(=O)Nc4ccc(C(C)C)cc4)c(C)c23)CC1
AC50 [1]: 31.6 µM [falling, partial curve]

COc1cccc(N2CCN(C(=O)c3ccc(C)c(NC(=O)c4nsc5ccccc45)c3)CC2)c1
AC50 [1]: 39.8 µM [falling, single point]

Cc1ccc(N(CC(=O)NCCc2ccc(Cl)cc2)S(=O)(=O)c2c(C)noc2C)cc1
AC50 [1]: 6.31 µM [falling, partial curve]
